# Where two headings read alike, the source gives them in different places.
# How the values were obtained:
# in vivo = conditions: rat, po, 5 days, female rats, read-out: % of dead animals
# Text: Five days subacute toxicity in rats per os
# Animals: 5 female rats for each group, average body weight: 150g.
# Mouse = conditions: per os, literature value (footnotes a, b); cited from earlier work
compound,measurement,setting,value
"COc1ccc2cc([C@H](C)C(=O)O)ccc2c1 [Naproxen, naproxen, reference compound]",mortality at 120 h,"in vivo; 50 mg/kg/day, 50 mg/kg/die per os",0%
same,mortality at 120 h,"in vivo; 100 mg/kg/day, 100 mg/kg/die per os",20%
same,LD 50 (Litchfield and Wilcoxon),Mouse,1234 mg/kg
